Where “and” joins values, the source holds several entries; their conditions need not be identical. Identical values can stand only once. Like-named read-outs stand apart in the source and are kept apart here. This continues a long series; more values of the same kind are listed elsewhere.
System: CDC1551(ΔdosR) mutant
Assay type: cell-based
Details: for Counts per million (CPM): DosR mutant treated with HC101A, replicates 1, 2; for log2 Fold change: DosR mutant, HC101A vs DMSO

## C[C@@H]1CC[C@H]2[C@@H](C)C(=O)O[C@@H]3O[C@]4(C)CC[C@@H]1[C@]32OO4 [HC101A, artemisinin, reference compound]
Gene MT0169 Rv0160c PE
  Counts per million (CPM): 26.44 CPM and 29.07 CPM
Gene MT0258 Rv0244c fadE5
  Counts per million (CPM): 759.9 CPM and 1,123.31 CPM
Gene MT0273 Rv0260c
  Counts per million (CPM): 15.8 CPM and 7.243 CPM
Gene MT0468 Rv0452
  Counts per million (CPM): 461.5 CPM and 261.5 CPM
  log2 Fold change: 1.384
Gene MT0530 Rv0509 hemA
  Counts per million (CPM): 1,704.93 CPM and 1,028.46 CPM
  log2 Fold change: 1.03
Gene MT0531 Rv0510 hemC
  Counts per million (CPM): 794.5 CPM and 398.4 CPM
  log2 Fold change: 1.247
Gene MT0532 Rv0511 cysG
  Counts per million (CPM): 1,631.80 CPM and 832.8 CPM
Gene MT0533 Rv0512 hemB
  Counts per million (CPM): 601.2 CPM and 365.7 CPM
Gene MT0583 Rv0557
  Counts per million (CPM): 376.9 CPM and 224.6 CPM
Gene MT0586 Rv0560c
  Counts per million (CPM): 106.2 CPM and 65.09 CPM
Gene MT0658 Rv0630c recB
  Counts per million (CPM): 75.59 CPM and 34.26 CPM
Gene MT0705 Rv0676c mmpL5
  Counts per million (CPM): 3,503.44 CPM and 3,550.24 CPM
Gene MT0706 Rv0677c mmpS5
  Counts per million (CPM): 1,184.86 CPM and 1,231.08 CPM
Gene MT0706.1 Rv0678
  Counts per million (CPM): 272.5 CPM and 202.4 CPM
Gene MT0772.5 Rv0747 PE_PGRS
  Counts per million (CPM): 200 CPM and 58.24 CPM
Gene MT0808 Rv0784
  Counts per million (CPM): 811.8 CPM and 173.4 CPM
Gene MT0956 Rv0929 pstC2
  Counts per million (CPM): 370.5 CPM and 355.6 CPM
Gene MT1073 Rv1043c
  Counts per million (CPM): 209.4 CPM and 170.4 CPM
Gene MT1123 Rv1091 PE_PGRS
  Counts per million (CPM): 76.29 CPM and 18.21 CPM
Gene MT1296 Rv1257c
  Counts per million (CPM): 517.1 CPM and 305 CPM
Gene MT1297 Rv1258c
  Counts per million (CPM): 201.7 CPM and 152.3 CPM
Gene MT1303 Rv1265
  Counts per million (CPM): 292.5 CPM and 237.3 CPM
Gene MT1424 Rv1380 pyrB
  Counts per million (CPM): 370.4 CPM and 97 CPM
Gene MT1425 Rv1381 pyrC
  Counts per million (CPM): 782.7 CPM and 262.4 CPM
Gene MT1426
  Counts per million (CPM): 173.6 CPM and 47.38 CPM
Gene MT1427 Rv1383 car A
  Counts per million (CPM): 572.9 CPM and 296.4 CPM
Gene MT1428 Rv1384 carB
  Counts per million (CPM): 1,369.37 CPM and 816.2 CPM
Gene MT1429 Rv1385 pyrF
  Counts per million (CPM): 137 CPM and 37.59 CPM
Gene MT1620 Rv1569 bioF
  Counts per million (CPM): 87.71 CPM and 20.65 CPM
Gene MT1836 Rv1787 PPE
  Counts per million (CPM): 284.7 CPM and 109.7 CPM
Gene MT1893 Rv1845c
  Counts per million (CPM): 347.7 CPM and 58.83 CPM
Gene MT2126 Rv2066 cobl
  Counts per million (CPM): 68.04 CPM and 27.11 CPM
Gene MT2264 Rv2208 cobS
  Counts per million (CPM): 65.14 CPM and 14.1 CPM
Gene MT2615 Rv2540c aroF
  Counts per million (CPM): 668.7 CPM and 48.55 CPM
Gene MT2631
  Counts per million (CPM): 100.8 CPM and 15.96 CPM
Gene MT2863 Rv2794c
  Counts per million (CPM): 147.5 CPM and 103.9 CPM
Gene MT3110 Rv3026c
  Counts per million (CPM): 98.61 CPM and 28.29 CPM
Gene MT3133 Rv3048c nrdG
  Counts per million (CPM): 232.6 CPM and 256.1 CPM
Gene MT3134 Rv3049c
  Counts per million (CPM): 487.4 CPM and 585.1 CPM
Gene MT3178 Rv3094c
  Counts per million (CPM): 44.69 CPM and 16.44 CPM
Gene MT3293 Rv3199c
  Counts per million (CPM): 141.7 CPM and 118.6 CPM
Gene MT3327 Rv3230c
  Counts per million (CPM): 1,566.59 CPM and 1,092.38 CPM
Gene MT3441 Rv3338
  Counts per million (CPM): 119.8 CPM and 82.42 CPM
Gene MT3481 Rv3371
  Counts per million (CPM): 86.74 CPM and 29.17 CPM
Gene MT3492 Rv3384c
  Counts per million (CPM): 51.14 CPM and 8.907 CPM
  log2 Fold change: 1.051
Gene MT3498 Rv3391 acrA1
  Counts per million (CPM): 73.2 CPM and 47.47 CPM
Gene MT3539 Rv3433c
  Counts per million (CPM): 60.36 CPM and 7.341 CPM
  log2 Fold change: 1.232
Gene MT3581 Rv3477 PE
  Counts per million (CPM): 30.05 CPM and 39.25 CPM
Gene MT3591 Rv3487c lipF
  Counts per million (CPM): 22.96 CPM and 20.56 CPM
Gene MT3696 Rv3590c PE_PGRS
  Counts per million (CPM): 89 CPM and 5.481 CPM
  log2 Fold change: 1.338
Gene MT3947 Rv3839
  Counts per million (CPM): 12.45 CPM and 10.47 CPM
Gene MT3963 Rv3848
  Counts per million (CPM): 225.5 CPM and 354.9 CPM
Gene MT3969 Rv3854c
  Counts per million (CPM): 246.5 CPM and 439.4 CPM
Gene MT3970 Rv3855
  Counts per million (CPM): 59.46 CPM and 89.17 CPM
Gene MT3976 Rv3862c
  Counts per million (CPM): 184.3 CPM and 55.7 CPM
Gene MT3978 Rv3864
  Counts per million (CPM): 526.5 CPM and 634.4 CPM
Gene MT3988 Rv3874
  Counts per million (CPM): 1,214.01 CPM and 1,648.46 CPM
Gene MT3989 Rv3875 esat6
  Counts per million (CPM): 1,889.51 CPM and 2,881.50 CPM

From patent US11717508B2, “Compounds, compositions, and methods for inhibiting bacterial growth” (priority 2016, dated 2023)
